Test results taken from article PMC9091338.
Results are given in words; binding and its absence hold for the method and conditions named. In cells and extracts the contact can be indirect. Some entries that bind do so weakly or less than the wild type. Tags and fused reporters may be left off the sequences shown.

T1: 14-3-3ζ-HA (Drosophila melanogaster) (UniProt P29310)
T1 sequence: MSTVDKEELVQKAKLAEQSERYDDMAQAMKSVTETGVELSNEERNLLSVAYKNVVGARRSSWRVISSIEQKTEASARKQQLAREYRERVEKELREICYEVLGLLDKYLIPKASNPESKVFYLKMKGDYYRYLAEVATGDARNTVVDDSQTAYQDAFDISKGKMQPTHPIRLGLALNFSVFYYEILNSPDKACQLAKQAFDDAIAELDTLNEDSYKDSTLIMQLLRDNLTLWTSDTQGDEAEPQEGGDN

T2: Gce-FLAG (Germ-cell expressed, full length) (Drosophila melanogaster) (UniProt Q9VXW7)
T2 sequence: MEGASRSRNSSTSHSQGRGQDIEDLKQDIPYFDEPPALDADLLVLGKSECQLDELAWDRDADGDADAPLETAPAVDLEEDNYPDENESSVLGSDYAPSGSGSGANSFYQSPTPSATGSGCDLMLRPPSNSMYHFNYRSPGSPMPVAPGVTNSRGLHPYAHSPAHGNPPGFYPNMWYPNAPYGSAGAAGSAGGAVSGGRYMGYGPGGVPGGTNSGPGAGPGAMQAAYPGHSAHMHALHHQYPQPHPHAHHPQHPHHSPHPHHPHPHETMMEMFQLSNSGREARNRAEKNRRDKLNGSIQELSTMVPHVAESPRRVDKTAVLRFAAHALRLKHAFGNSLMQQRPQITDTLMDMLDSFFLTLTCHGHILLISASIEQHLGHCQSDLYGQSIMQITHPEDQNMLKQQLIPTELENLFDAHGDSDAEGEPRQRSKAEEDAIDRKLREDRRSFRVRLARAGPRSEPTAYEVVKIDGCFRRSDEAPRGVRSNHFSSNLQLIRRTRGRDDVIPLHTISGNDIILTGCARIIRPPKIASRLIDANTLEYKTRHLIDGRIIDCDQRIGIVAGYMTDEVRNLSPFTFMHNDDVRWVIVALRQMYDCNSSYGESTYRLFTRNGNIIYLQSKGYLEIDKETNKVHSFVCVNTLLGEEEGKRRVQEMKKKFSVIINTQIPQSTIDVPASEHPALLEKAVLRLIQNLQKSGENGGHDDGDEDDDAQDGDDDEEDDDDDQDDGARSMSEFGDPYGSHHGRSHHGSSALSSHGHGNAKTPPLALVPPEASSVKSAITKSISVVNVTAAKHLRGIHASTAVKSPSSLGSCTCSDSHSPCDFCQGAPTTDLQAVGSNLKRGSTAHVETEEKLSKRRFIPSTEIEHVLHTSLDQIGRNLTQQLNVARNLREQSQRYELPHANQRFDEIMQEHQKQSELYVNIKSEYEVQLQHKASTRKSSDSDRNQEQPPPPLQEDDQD


Assays:
[1] = molecular target: Hsp83-FLAG (Drosophila melanogaster) (UniProt P02828); experiment: co-IP; Kc cells co-transfected with two tagged proteins, DMSO or methoprene (JHA) 2 h; NP-40 lysate; IP with anti-FLAG and protein A/G agarose, 4°C; western blot (Figures 6C, D, E, G, H, 8D)
[2] = molecular target: T1, 14-3-3ζ-HA (Drosophila melanogaster); experiment: co-IP; Kc cells co-transfected with 14-3-3ζ-HA and Hsp83-V5 or Hsp83 S219A-V5, DMSO or methoprene (JHA) 2 h; NP-40 lysate; IP with anti-HA and protein A/G agarose, 4°C; blot for V5 (Figures 6F, 8C)
[3] = molecular target: T2, Gce-FLAG (Germ-cell expressed, full length) (Drosophila melanogaster); experiment: co-IP; Kc cells co-transfected with two tagged proteins, DMSO or methoprene (JHA) 2 h; NP-40 lysate; IP with anti-FLAG and protein A/G agarose, 4°C; western blot (Figures 6C, D, E, G, H, 8D)
[4] = molecular target: Hsp83-V5 (Drosophila melanogaster) (UniProt P02828); experiment: co-IP; Kc cells co-expressing Hsp83, Met/Gce and 14-3-3, with JHA; IP with anti-HA and with anti-V5; western blot (Figure 6I)

| binding [1] | binding [2] | Molecule | other results |
| --- | --- | --- | --- |
| binds |  | 14-3-3ε-HA (from UniProt P92177-3 1-262) |  |
|  | binds | Hsp83-V5 (from UniProt P02828 1-717) | binding [3]: binds |
|  | binds | Hsp83^S219A-V5 (from UniProt P02828 1-717) |  |
|  |  | Gce-FLAG (Germ-cell expressed, full length) (protein, UniProt Q9VXW7 1-959) MEGASRSRNSSTSHSQGRGQDIEDLKQDIPYFDEPPALDADLLVLGKSECQLDELAWDRDADGDADAPLETAPAVDLEEDNYPDENESSVLGSDYAPSGSGSGANSFYQSPTPSATGSGCDLMLRPPSNSMYHFNYRSPGSPMPVAPGVTNSRGLHPYAHSPAHGNPPGFYPNMWYPNAPYGSAGAAGSAGGAVSGGRYMGYGPGGVPGGTNSGPGAGPGAMQAAYPGHSAHMHALHHQYPQPHPHAHHPQHPHHSPHPHHPHPHETMMEMFQLSNSGREARNRAEKNRRDKLNGSIQELSTMVPHVAESPRRVDKTAVLRFAAHALRLKHAFGNSLMQQRPQITDTLMDMLDSFFLTLTCHGHILLISASIEQHLGHCQSDLYGQSIMQITHPEDQNMLKQQLIPTELENLFDAHGDSDAEGEPRQRSKAEEDAIDRKLREDRRSFRVRLARAGPRSEPTAYEVVKIDGCFRRSDEAPRGVRSNHFSSNLQLIRRTRGRDDVIPLHTISGNDIILTGCARIIRPPKIASRLIDANTLEYKTRHLIDGRIIDCDQRIGIVAGYMTDEVRNLSPFTFMHNDDVRWVIVALRQMYDCNSSYGESTYRLFTRNGNIIYLQSKGYLEIDKETNKVHSFVCVNTLLGEEEGKRRVQEMKKKFSVIINTQIPQSTIDVPASEHPALLEKAVLRLIQNLQKSGENGGHDDGDEDDDAQDGDDDEEDDDDDQDDGARSMSEFGDPYGSHHGRSHHGSSALSSHGHGNAKTPPLALVPPEASSVKSAITKSISVVNVTAAKHLRGIHASTAVKSPSSLGSCTCSDSHSPCDFCQGAPTTDLQAVGSNLKRGSTAHVETEEKLSKRRFIPSTEIEHVLHTSLDQIGRNLTQQLNVARNLREQSQRYELPHANQRFDEIMQEHQKQSELYVNIKSEYEVQLQHKASTRKSSDSDRNQEQPPPPLQEDDQD | binding [4]: binds |
| binds |  | 14-3-3ζ-HA (protein, UniProt P29310-1 1-248) MSTVDKEELVQKAKLAEQSERYDDMAQAMKSVTETGVELSNEERNLLSVAYKNVVGARRSSWRVISSIEQKTEASARKQQLAREYRERVEKELREICYEVLGLLDKYLIPKASNPESKVFYLKMKGDYYRYLAEVATGDARNTVVDDSQTAYQDAFDISKGKMQPTHPIRLGLALNFSVFYYEILNSPDKACQLAKQAFDDAIAELDTLNEDSYKDSTLIMQLLRDNLTLWTSDTQGDEAEPQEGGDN |  |
